Results published in patent US10076525B2, “Sex steroid precursors alone or in combination with selective estrogen receptor modulators for the prevention and treatment of dyspareunia in postmenopausal women” (ENDORECHERCHE, INC., priority 2004, dated 2018).
For at least one compound, name, drawing or mass did not settle the structure.

Test system: rat vagina
Assay: DHEA plus antiandrogen Flutamide in OVX animals (unpublished results)
Format: in vivo
Settings: topical DHEA plus subcutaneous Flutamide, data not shown

With CC(C)C(=O)Nc1ccc([N+](=O)[O-])c(C(F)(F)F)c1 [FLU] the “androgenic effect of mucification produced by DHEA” value was “completely reversed”.
